For 23 compounds, survivor count and T/C results are on record in PubChem BioAssay AID330 (DTP/NCI, 2004).

For the assay, the system named is P388 leukemia ip, CD2F1 mice, survival T/C. Put plainly: NCI In Vivo Anticancer Drug Screen. Data for tumor model P388 Leukemia (intraperitoneal) in CD2F1 (CDF1) mice. Conditions: T/C endpoint: median survival time, higher T/C = longer survival.
Setting [1] is: dose: 50.0 mg/kg/injection, schedule: Q01DX005 (ip), vehicle: saline with Tween-80.
Setting [2] is: dose: 100.0 mg/kg/injection, schedule: Q01DX005 (ip), vehicle: saline with Tween-80.
The mark [3] stands for this setting: dose: 200.0 mg/kg/injection, schedule: Q01DX005 (ip), vehicle: saline with Tween-80.
Setting [4] is: dose: 25.0 mg/kg/injection, schedule: Q01DX009 (ip), vehicle: saline with Tween-80.
Where [5] appears, read: dose: 50.0 mg/kg/injection, schedule: Q01DX009 (ip), vehicle: saline with Tween-80.
[6] abbreviates: dose: 100.0 mg/kg/injection, schedule: Q01DX009 (ip), vehicle: saline with Tween-80.
Setting [7] is: dose: 200.0 mg/kg/injection, schedule: Q01DX009 (ip), vehicle: saline with Tween-80.
Where [8] appears, read: dose: 50.0 mg/kg/injection, schedule: Q01DX005 (ip), vehicle: Klucel (hydroxypropylcellulose) (HPC).
[9] abbreviates: dose: 100.0 mg/kg/injection, schedule: Q01DX005 (ip), vehicle: Klucel (hydroxypropylcellulose) (HPC).
Setting [10] is: dose: 200.0 mg/kg/injection, schedule: Q01DX005 (ip), vehicle: Klucel (hydroxypropylcellulose) (HPC).
Where [11] appears, read: dose: 240.0 mg/kg/injection, schedule: Q01DX005 (ip), vehicle: saline with Tween-80.
[12] abbreviates: dose: 120.0 mg/kg/injection, schedule: Q01DX005 (ip), vehicle: saline with Tween-80.
The mark [13] stands for this setting: dose: 32.0 mg/kg/injection, schedule: Q04DX003 (ip), vehicle: distilled water + Tween-80.
Where [14] appears, read: dose: 12.5 mg/kg/injection, schedule: Q01DX009 (ip), vehicle: saline with Tween-80.

The list does not hold the whole screen: it is rich in T/C values a quarter to a half above the control, in often repeated tests (any T/C) and in doses without a T/C. Further doses and runs are listed elsewhere. T/C gives the treated animals as a percentage of the vehicle group. Some entries give survivors of the animals treated and no T/C: the source holds a T/C of zero for them, seemingly a mark for toxic or unscored doses. Some doses without a T/C left all or most animals alive at the check, yet need not have been tolerated: survival well below the control is almost never listed, so the zero probably covers shortened survival too. Survivors were counted at the toxicity check, usually on the fifth day, unless a day is given; later deaths do not show. Schedules are NCI's codes, read here as Q, the interval in days (D) or hours (H), X, the number of doses. Some entries were tested several times; the values are given in rising order. Some molecules as drawn cover several salts, stereoisomers or complexes of the source; a dose is that of the sample tested. For survival time, this PubChem deposit counts one and a half times the control or more as active, and values a quarter to a half above the control carry no call in these data; other NCI protocols may use other cut-offs. Additions like (4×) stand for listed records that agree.

On to `CC1CC=CCC1C1NC(C(=O)O)CS1` (centres undefined), for which the survivor count (dose: 50.0 mg/kg/injection, schedule: Q01DX009 (ip), vehicle: suspension in saline) is given as 6 of 6.

For the compound `O=C(C(=O)C(F)(F)C(F)(F)C(F)(F)F)c1ccccc1`, the survivor count (dose: 200.0 mg/kg/injection, schedule: Q01DX005 (ip), vehicle: saline + Tween-80 + alcohol) was 3 of 6.

Consider `COc1cc2nc3cc([N+](=O)[O-])ccc3c(NCCNCC(C)(C)O)c2cc1OC`, for which the survivor count is recorded as 4 of 6, 4 of 5, 6 of 6 under setting [1]; 0 of 5 under setting [2]; 0 of 5 under setting [3].

With `CCn1c2ccccc2c2cc(NC(=O)N(CCCl)N=O)ccc21`, the T/C is, setting by setting: under setting [4], 133 and 146 % of control; under setting [5], 134 and 147 % of control.

On to `CC(=O)O.CC(=O)O.[Co+2].[NH-]C(CCC(N)=O)C(=O)O.[NH-]C(CCC(N)=O)C(=O)O` (centres undefined), for which the survivor count under setting [6] is recorded as 6 of 6 and the survivor count under setting [7] is on record as 0 of 6.

Take `Clc1ccc(-c2nnc(-c3cccc(Cl)n3)o2)c(Cl)c1`: the survivor count (dose: 175.0 mg/kg/injection, schedule: Q01DX005 (ip), vehicle: saline with Tween-80) was 6 of 6.

With `C=CCn1c(=S)sc2ccccc21`, the survivor count by setting is: (dose: 50.0 mg/kg/injection, schedule: Q01DX009 (ip), vehicle: Klucel (hydroxypropylcellulose) (HPC)) 6 of 6; (dose: 100.0 mg/kg/injection, schedule: Q01DX009 (ip), vehicle: Klucel (hydroxypropylcellulose) (HPC)) 6 of 6; (dose: 200.0 mg/kg/injection, schedule: Q01DX009 (ip), vehicle: Klucel (hydroxypropylcellulose) (HPC)) 6 of 6.

Turning to `CCOC(=O)C(Cc1c[nH]c2ccccc12)NCc1ccc(N(CCCl)CCCl)cc1` (centres undefined), the T/C under setting [7] is 126 % of control.

Turning to `[N-]=[N+]=CC(=O)CCC(NC(=O)OCc1ccccc1)C(=O)OCc1ccccc1` (centres undefined), the survivor count was 7 of 10 (dose: 25.0 mg/kg/injection, schedule: Q01DX005 (ip), vehicle: Klucel (hydroxypropylcellulose) (HPC)); 9 of 10 under setting [8]; 1 of 10 under setting [9]; 0 of 10, 5 of 6, 6 of 6 under setting [10]. Also, the T/C by setting is: under setting [8], 112, 147, 151 % of control; under setting [9], 136, 143, 156, 168 % of control; (dose: 167.0 mg/kg/injection, schedule: Q01DX005 (ip), vehicle: Klucel (hydroxypropylcellulose) (HPC)) 145 % of control; under setting [10], 121 % of control.

On to `C(CCC1CO1)CC1CO1` (centres undefined), for which the survivor count by setting is: (dose: 200.0 mg/kg/injection, schedule: Q04DX002 (ip), vehicle: Klucel (hydroxypropylcellulose) (HPC)) 6 of 6; (dose: 400.0 mg/kg/injection, schedule: Q04DX002 (ip), vehicle: Klucel (hydroxypropylcellulose) (HPC)) 6 of 6.

Consider `c1ccc(C2(c3ccc(C4(c5ccccc5)Oc5ccccc5S4)[nH]3)Oc3ccccc3S2)cc1` (centres undefined), for which, under setting [11], the survivor count is listed as 0 of 6.

As for `COC(=O)CN(CCCl)P1(=O)OCCCN1CCCl` (centres undefined), under setting [11], the survivor count is reported as 1 of 6.

As to `CN(CC#N)Cc1ccccc1`, the survivor count is given as 0 of 6 under setting [12] and 0 of 6 under setting [11].

For the compound `COc1cccc2c1C(=O)c1c(O)c3c(c(O)c1C2=O)C[C@@](O)(C(C)=O)C[C@@H]3OC1CC(N=CCCCC=NC2CC(O[C@H]3C[C@](O)(C(C)=O)Cc4c(O)c5c(c(O)c43)C(=O)c3c(OC)cccc3C5=O)OC(C)C2O)C(O)C(C)O1` (some centres undefined), the T/C (dose: 4.0 mg/kg/injection, schedule: Q04DX003 (ip), vehicle: distilled water + Tween-80) is 129 % of control; the T/C (dose: 8.0 mg/kg/injection, schedule: Q04DX003 (ip), vehicle: distilled water + Tween-80) is 131 % of control; the T/C (dose: 16.0 mg/kg/injection, schedule: Q04DX003 (ip), vehicle: distilled water + Tween-80) is 130 % of control; the T/C under setting [13] is 139 % of control. Also, the survivor count runs as follows: under setting [13], 6 of 6; (dose: 64.0 mg/kg/injection, schedule: Q04DX003 (ip), vehicle: distilled water + Tween-80) 4 of 6; (dose: 128.0 mg/kg/injection, schedule: Q04DX003 (ip), vehicle: distilled water + Tween-80) 1 of 6.

Consider `O=C1c2ccccc2C(=O)N1CC[P+](c1ccccc1)(c1ccccc1)c1ccccc1`, for which the T/C is, setting by setting: (dose: 5.56 mg/kg/injection, schedule: Q01DX009 (ip), vehicle: water) 136 % of control; (dose: 6.25 mg/kg/injection, schedule: Q01DX009 (ip), vehicle: water) 128, 130, 133 % of control; (dose: 8.33 mg/kg/injection, schedule: Q01DX009 (ip), vehicle: water) 140 % of control; (dose: 12.0 mg/kg/injection, schedule: Q01DX009 (ip), vehicle: saline with Tween-80) 136 % of control; under setting [14], 142 % of control; (dose: 12.5 mg/kg/injection, schedule: Q01DX009 (ip), vehicle: water) 132 and 140 % of control. Besides, the survivor count under setting [4] is recorded as 6 of 6; the survivor count (dose: 25.0 mg/kg/injection, schedule: Q01DX009 (ip), vehicle: water) is 0 of 6 and 3 of 6; the survivor count under setting [5] was 1 of 6; the survivor count under setting [6] is given as 0 of 6.

As for `Cc1ccc2c[n+]3ccccc3c(-c3ccccc3)c2c1`, the survivor count is reported as 5 of 5 (dose: 6.25 mg/kg/injection, schedule: Q04DX003 (ip), vehicle: Klucel (hydroxypropylcellulose) (HPC)); 0 of 5 (dose: 12.5 mg/kg/injection, schedule: Q04DX003 (ip), vehicle: Klucel (hydroxypropylcellulose) (HPC)); 1 of 5 (dose: 25.0 mg/kg/injection, schedule: Q04DX003 (ip), vehicle: Klucel (hydroxypropylcellulose) (HPC)); 0 of 5 (dose: 50.0 mg/kg/injection, schedule: Q04DX003 (ip), vehicle: Klucel (hydroxypropylcellulose) (HPC)); 0 of 5 (dose: 100.0 mg/kg/injection, schedule: Q04DX003 (ip), vehicle: Klucel (hydroxypropylcellulose) (HPC)); 0 of 5 (dose: 200.0 mg/kg/injection, schedule: Q04DX003 (ip), vehicle: Klucel (hydroxypropylcellulose) (HPC)). For the same compound, the survivor count (dose: 400.0 mg/kg/injection, schedule: Q04DX003 (ip), vehicle: Klucel (hydroxypropylcellulose) (HPC)) is 0 of 5.

As to `O=C(Nc1ccc(Cl)cc1)Nc1nnc(-c2ccc(F)cc2)o1`, the survivor count runs as follows: (dose: 60.0 mg/kg/injection, schedule: Q01DX005 (ip), vehicle: saline with Tween-80) 6 of 6; under setting [12], 6 of 6; under setting [11], 6 of 6.

As for `CN(C)c1cccc(NC(=O)CC#N)c1`, the survivor count under setting [3] was 0 of 6.

`CN1C(=O)C(=Cc2ccc(O)cc2)C(=O)N(C)C1=O`: under setting [7], the T/C was 126 % of control (2×).

Take `C(=N\Nc1nnc(-c2ccccc2)c(-c2ccccc2)n1)/c1cccnc1`: the survivor count is recorded as 6 of 6 under setting [1] and 6 of 6 under setting [2].

As for `Cc1cc(Nc2ccc(N(CCCl)CCCl)cc2)cc(C)c1O`, the T/C (dose: 6.25 mg/kg/injection, schedule: Q01DX009 (ip), vehicle: saline with Tween-80) is 145 % of control. In addition, the survivor count under setting [5] was 6 of 6, the survivor count under setting [6] is 2 of 6 and the survivor count under setting [7] is 0 of 6.

For `O=C(O)CC1OCC=C2C[N+]3([O-])CCC45c6ccccc6NC4C1C2CC53` (centres undefined), the survivor count was 0 of 6 under setting [12] and 0 of 6 under setting [11].

As to `COC1(OC)C2CCC1C(Cl)=C2Cl`, the survivor count was 4 of 6 under setting [14]; 0 of 6 and 1 of 6 under setting [4]; 1 of 6 under setting [5]; 0 of 6 under setting [6].
